For test [1], the target named is vimentin, endogenous, in fixed and permeabilised LNCaP prostate cancer cells (human) (UniProt P08670). Description: FRET/FLIM in LNCaP cells with AF488 anti-vimentin and AF568 anti-hGIIA antibodies.
Test [2] concerns the target vimentin coil 2 fragment (residues 254 to 405), recombinant, His-tagged (human) (UniProt P08670). The test is described as follows: EIA, plate-bound vimentin fragments (summary of results).
For test [3] the target is unchanged. The test is described as follows: EIA, plate-bound vimentin coil 2, hGIIA 5-1000 ng/mL, detection with 4A1-AP.
The target of test [4] is full length human vimentin, recombinant, His-tagged (pET15b, E. coli) (human) (UniProt P08670). The test is described as follows: EIA, plate-bound full length vimentin, hGIIA 5-1000 ng/mL, detection with 4A1-AP.
The target in test [5] is vimentin coil 2 fragment (residues 254 to 405), recombinant, His-tagged (human) (UniProt P08670). The test is described as follows: EIA, plate-bound vimentin coil 2, detection with AP-labelled hGIIA-specific monoclonal antibody.

By UniProt entry, the sequences of proteins in these tests, tags left out. Where a name states a change or a piece, a line headed by the entry shows the natural chain unless it says otherwise.
UniProt P08670: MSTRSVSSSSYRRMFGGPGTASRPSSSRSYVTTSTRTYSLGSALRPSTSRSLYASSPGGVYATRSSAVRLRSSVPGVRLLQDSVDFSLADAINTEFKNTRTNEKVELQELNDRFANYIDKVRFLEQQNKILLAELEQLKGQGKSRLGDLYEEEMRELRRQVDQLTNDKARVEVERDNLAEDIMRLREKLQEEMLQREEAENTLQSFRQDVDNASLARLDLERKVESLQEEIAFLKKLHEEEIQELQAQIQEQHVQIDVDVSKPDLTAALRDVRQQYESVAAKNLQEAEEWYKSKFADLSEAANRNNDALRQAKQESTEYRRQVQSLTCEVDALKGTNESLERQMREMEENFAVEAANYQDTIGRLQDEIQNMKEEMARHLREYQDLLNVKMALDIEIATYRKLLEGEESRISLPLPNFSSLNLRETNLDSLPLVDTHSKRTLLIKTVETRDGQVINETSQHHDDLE

No constants are given. Whether binding was seen depends on the method and setting. Some results given as binding are weak or reduced against the parent protein; the word gives no strength.

B1: hGIIA, endogenous, in fixed and permeabilised LNCaP prostate cancer cells (enzyme)
chain: NLVNFHRMIKLTTGKEAALSYGFYGCHCGVGGRGSPKDATDRCCVTHDCCYKRLEKRGCGTKFLSYKFSNSGSRITCAKQDSCRSQLCECDKAAATCFARNKTTYNKKYQYYSNKHCRGSTPRC
In the case of B1, in test [1], the binding result is listed as “binds”.

B2: human group IIA secreted phospholipase A2 (hGIIA), recombinant, purified from conditioned media of CHO cell line 2B1 (enzyme)
chain: NLVNFHRMIKLTTGKEAALSYGFYGCHCGVGGRGSPKDATDRCCVTHDCCYKRLEKRGCGTKFLSYKFSNSGSRITCAKQDSCRSQLCECDKAAATCFARNKTTYNKKYQYYSNKHCRGSTPRC
With B2, the binding result in test [2], in test [3], in test [4] and in test [5] was “binds” throughout.
